Drawing on article PMC12311512, this text covers binding for one molecule.

Protein sequences, listed by entry. Tags and fused reporters are not part of them.
UniProt Q9UKB1: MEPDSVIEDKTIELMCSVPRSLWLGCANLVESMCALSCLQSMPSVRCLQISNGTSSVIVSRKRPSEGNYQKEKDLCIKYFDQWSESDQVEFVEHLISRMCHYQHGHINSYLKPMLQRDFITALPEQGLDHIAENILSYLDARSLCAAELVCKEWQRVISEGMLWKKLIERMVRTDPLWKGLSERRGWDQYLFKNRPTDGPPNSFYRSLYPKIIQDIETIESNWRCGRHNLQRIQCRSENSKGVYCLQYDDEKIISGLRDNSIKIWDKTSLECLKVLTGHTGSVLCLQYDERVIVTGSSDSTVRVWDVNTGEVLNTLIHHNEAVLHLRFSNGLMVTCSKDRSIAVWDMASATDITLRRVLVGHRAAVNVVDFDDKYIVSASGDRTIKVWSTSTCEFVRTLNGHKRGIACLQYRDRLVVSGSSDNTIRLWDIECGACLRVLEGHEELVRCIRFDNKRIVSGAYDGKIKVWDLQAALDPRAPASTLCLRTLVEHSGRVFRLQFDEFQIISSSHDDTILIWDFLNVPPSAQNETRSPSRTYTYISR

These are yes or no findings as the source states them, for the method shown. In cells and extracts the contact can be indirect. Some entries that bind do so weakly or less than the wild type.

In the test the target is F-box and tryptophan-aspartic (WD) repeat domain containing 11 (FBXW11) (human (endogenous in A2780 and UWB1.289)) (UniProt Q9UKB1). Description: co-IP; lysates of A2780 and UWB1.289 cells (1,000 μg supernatant) incubated overnight at 4 °C with protein A/G magnetic beads carrying anti-FBXW11 or control IgG; eluate blotted for S100A11.

B1: S100 calcium binding protein A11 (S100A11) (protein, UniProt P31949 1-105)
chain: MAKISSPTETERCIESLIAVFQKYAGKDGYNYTLSKTEFLSFMNTELAAFTKNQKDPGVLDRMMKKLDTNSDGQLDFSEFLNLIGGLAMACHDSFLKAVPSQKRT
As for B1, the binding result is reported as “binds”.
